According to patent US8012994B1 (priority 2006, dated 2011):
Where a name gives a salt, the structure may show the parent alone. Read-outs that look alike come from different tables or passages of the source.

Key:
[1] = system: neuropathy of the auditory nerve after tuberculose meningitis
[2] = system: sensorineural loss of hearing from ototoxic drugs and viral or bacterial infection
[3] = system: arachnoidal cyst in the cerebropontine angle
[4] = after the second course of treatment

## COc1cc2c(cc1OC)C(=O)C(CC1CCN(Cc3ccccc3)CC1)C2 (centres unmarked) [ARICEPT®, donepezil hydrochloride]
[1]; patient 5-7 years, hearing loss of 95 dB, three courses 1.25 mg two times a day during 20 days
  effect of treatment: no positive effects
[1]; two patients 5-7 years after relapse, 3 to 5 courses of twenty days every three months
  hearing improved by: 5-10 dB
[1]; two patients 5-7 years, after the improvement
  hearing after a cold or flu: returned to the initial level
[1]; two patients 5-7 years, loss 60-70 dB, after 3 courses
  hearing improved by: 5-10 dB
[1]; two patients deaf since 6 and 12 months, threshold over 95 dB, 1.25 mg twice a day, after the 8th course
  hearing improved by: 5-10 dB
[2]; 10 patients 4-5 years, loss 50-70 dB, 0.625 mg once a day for 20 days, between the third and the fifth courses
  hearing improvement: 5-15 dB
[2]; after the fifth course, up to 8 courses
  effect of further courses: didn't yield any improvement
[3]; [4]
  headaches: less frequent
  slit between the lids when closing the right eye: 2 mm
[3]; after the third course
  movements of the mouth angle: restored
  palpebral fissure: closing completely
[3]; after treatment
  MRI, cyst: insignificant decrease of the cyst
[3]; follow-up examination in six months
  function of CN VII: no dysfunction of CN VII was observed
[3]; person, decrease in hearing by 40 dB, 2.5 mg twice a day for 25 days with CARBAMAZEPINE 200 mg two times a day
  hearing increased by: 5 dB
